# Measured values: patent US20080071190A1, “Timing of Ovulation Based on Vaginal Ph” (priority 2004, published 2008)
# For at least one compound, name, drawing or mass did not settle the structure.
# Test system: hECE cells (Human Ectocervical-Vaginal Epithelial Cells)
# Assay: Determinations of extracellular pH (pHo) in luminal and contra-luminal solutions of hECE cells cultured on filters
# Assay type: cell-based
# Conditions: hECE cells in steroid-free medium, hormone at 10 nM, FIG. 8A
# Description: Referring to FIG. 4A, hECE cells or Human Endocervical Cells were plated on Anocell filters (Anocel™-10, Oxon, UK, obtained through Sigma Chemicals, St. Louis, Mo.), which are ceramic-base filters, pore size of 0.02 μm width, 50 μm depth, and surface area of 0.6 cm^2. Filters 300 and 302 were coated with 4 μg/cm^2 collagen type IV and incubated at 37° C. overnight. The remaining collagen solution was aspirated and the filter was dried at 37° C. Before plating, filters 300 were rinsed 3 times with Hanks' Balanced Salt Solution. Cells were plated either on the upper surface 302 of one filter 300 (for determinations of luminal pHo) or on the bottom surface 304 of the other filter 300 (for determinations of the contra-luminal pHo) at 3·10^5 cells/cm^2. By plating at this relatively high density the cultures became confluent within 12 hours after plating.
# Plates containing the filters were placed in a tissue culture incubator (37° C.), and pHo changes in the luminal and contra-luminal solutions were determined using AMANI-1000 microcombination pH electrodes 306 (Harvard Apparatus, Holliston, Mass., obtained through Genomics Solutions, Ann Harbor, Mich.). The AMANI-1000 pH sensor (stored in pH 7.0) is based on metal-metal oxide pH measurements and the pH sensitive layer is immobilized on plastic. […]
compound,measurement,value
C[C@]12CC[C@@H]3c4ccc(O)cc4CC[C@H]3[C@@H]1CCC2=O [estrone],effect on luminal pHo (specificity of estrogen effect),only a mild effect
